# Data as given in the supplement of paper PMC8728848.
# The list shows a part of the results.
# B1: LlpB (Pseudomonas fluorescens) (protein)
# chain: MGSSHHHHHHSSGLVPRGSHMASSGFRIILFNSANNGTAILPPRNCLVAGQYLESPSKRYKLILEADGNLRLYDNGVPIWVADSSVPYTYVDNRPNTNLVTCFYMQGSAFLVDRVGSRTWATIGDWIDGAADRAYLQVQDDGNVVVVDGVPRWARFGFTPAALPNRGVFYPDHGTGPLPSFPVWSWTF
# Legend:
# Test in all cases: glycan array binding signal (z-score within array); higher = stronger binding
# Settings in all cases: glycan notation: IUPAC condensed, linker removed
# [1] = biological target: GalNAc(b1-4)GlcNAc(b1-2)Man
# Method in brief: (§1)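 Negative Z-scores can be read as non-binding. The Z-score is calculated within each array and then averaged across arrays of one protein sequence at different concentrations or buffers and across linkers. Arrays, 3228 in all, were curated from the Consortium for Functional Glycomics database and kept only where the protein sequence was available.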
# [2] = biological target: GalNAc(b1-4)GlcNAc(b1-2)Man(a1-3)[GalNAc(b1-4)GlcNAc(b1-2)Man(a1-6)]Man(b1-4)GlcNAc(b1-4)GlcNAc
# Method in brief: as §1
# [3] = biological target: GalNAc(b1-4)GlcNAc(b1-3)GalNAc(b1-4)GlcNAc
# Method in brief: as §1
# GalNAc(b1-4)GlcNAc6S = biological target: GalNAc(b1-4)GlcNAc6S
# Method in brief: as §1
# GalNAc(b1-6)GalNAc = biological target: GalNAc(b1-6)GalNAc
# Method in brief: as §1
# GalNAc3S(b1-4)GlcNAc = biological target: GalNAc3S(b1-4)GlcNAc
# Method in brief: as §1
# GalNAc3S(b1-4)GlcNAc3S = biological target: GalNAc3S(b1-4)GlcNAc3S
# Method in brief: as §1
# [4] = biological target: GalNAc3S(b1-4)[Fuc(a1-3)]GlcNAc
# Method in brief: as §1
# GalNAc4S6S(b1-4)GlcNAc = biological target: GalNAc4S6S(b1-4)GlcNAc
# Method in brief: as §1
# GalNAc6S(b1-4)GlcNAc = biological target: GalNAc6S(b1-4)GlcNAc
# Method in brief: as §1
# Glc(a1-4)Glc = biological target: Glc(a1-4)Glc
# Method in brief: as §1
# [5] = biological target: Glc(a1-4)Glc(a1-4)Glc(a1-4)Glc
# Method in brief: as §1
# Glc(a1-6)Glc(a1-6)Glc = biological target: Glc(a1-6)Glc(a1-6)Glc
# Method in brief: as §1
# [6] = biological target: Glc(a1-6)Glc(a1-6)Glc(a1-6)Glc
# Method in brief: as §1
# Glc(b1-4)Glc = biological target: Glc(b1-4)Glc
# Method in brief: as §1
# Glc(b1-6)Glc = biological target: Glc(b1-6)Glc
# Method in brief: as §1
# GlcA(b1-3)Gal = biological target: GlcA(b1-3)Gal
# Method in brief: as §1
# GlcA(b1-3)GlcNAc = biological target: GlcA(b1-3)GlcNAc
# Method in brief: as §1
# GlcA(b1-6)Gal = biological target: GlcA(b1-6)Gal
# Method in brief: as §1
# [7] = biological target: GlcA3S(b1-3)Gal(b1-4)GlcNAc(b1-2)Man
# Method in brief: as §1
# [8] = biological target: GlcA3S(b1-3)Gal(b1-4)GlcNAc(b1-3)Gal(b1-4)Glc
# Method in brief: as §1
# [9] = biological target: GlcNAc(a1-3)Gal(b1-4)GlcNAc
# Method in brief: as §1
# [10] = biological target: GlcNAc(a1-4)Gal(b1-3)GlcNAc
# Method in brief: as §1
# [11] = biological target: GlcNAc(a1-4)Gal(b1-4)GalNAc
# Method in brief: as §1
# [12] = biological target: GlcNAc(a1-4)Gal(b1-4)GlcNAc
# Method in brief: as §1
# [13] = biological target: GlcNAc(a1-4)Gal(b1-4)GlcNAc(b1-3)Gal(b1-4)Glc
# Method in brief: as §1
# [14] = biological target: GlcNAc(a1-4)Gal(b1-4)GlcNAc(b1-3)Gal(b1-4)GlcNAc
# Method in brief: as §1
# [15] = biological target: GlcNAc(a1-4)Gal(b1-4)GlcNAc(b1-3)Gal(b1-4)GlcNAc(b1-3)Gal(b1-4)GlcNAc
# Method in brief: as §1
# [16] = biological target: GlcNAc(a1-4)Gal(b1-4)GlcNAc(b1-3)Gal(b1-4)[Fuc(a1-3)]GlcNAc(b1-3)Gal(b1-4)[Fuc(a1-3)]GlcNAc
# Method in brief: as §1
# [17] = biological target: GlcNAc(a1-6)Gal(b1-4)GlcNAc
# Method in brief: as §1
# [18] = biological target: GlcNAc(b1-2)Gal(b1-3)GalNAc
# Method in brief: as §1
# [19] = biological target: GlcNAc(b1-2)Man(a1-3)[GlcNAc(b1-2)Man(a1-6)]Man(b1-4)GlcNAc(b1-4)GlcNAc
# Method in brief: as §1
# [20] = biological target: GlcNAc(b1-2)Man(a1-3)[GlcNAc(b1-2)Man(a1-6)]Man(b1-4)GlcNAc(b1-4)[Fuc(a1-6)]GlcNAc
# Method in brief: as §1
# [21] = biological target: GlcNAc(b1-2)Man(a1-3)[GlcNAc(b1-4)][GlcNAc(b1-2)Man(a1-6)]Man(b1-4)GlcNAc(b1-4)GlcNAc
# Method in brief: as §1
# [22] = biological target: GlcNAc(b1-2)Man(a1-3)[GlcNAc(b1-4)][GlcNAc(b1-2)Man(a1-6)]Man(b1-4)GlcNAc(b1-4)[Fuc(a1-6)]GlcNAc
# Method in brief: as §1
# [23] = biological target: GlcNAc(b1-2)[GlcNAc(b1-4)]Man(a1-3)[GlcNAc(b1-2)Man(a1-6)]Man(b1-4)GlcNAc(b1-4)GlcNAc
# Method in brief: as §1
# [24] = biological target: GlcNAc(b1-2)[GlcNAc(b1-4)]Man(a1-3)[GlcNAc(b1-4)][GlcNAc(b1-2)Man(a1-6)]Man(b1-4)GlcNAc(b1-4)GlcNAc
# Method in brief: as §1
# [25] = biological target: GlcNAc(b1-2)[GlcNAc(b1-4)]Man(a1-3)[GlcNAc(b1-4)][GlcNAc(b1-2)[GlcNAc(b1-6)]Man(a1-6)]Man(b1-4)GlcNAc(b1-4)GlcNAc
# Method in brief: as §1
# [26] = biological target: GlcNAc(b1-2)[GlcNAc(b1-4)]Man(a1-3)[GlcNAc(b1-4)][GlcNAc(b1-2)[GlcNAc(b1-6)]Man(a1-6)]Man(b1-4)GlcNAc(b1-4)[Fuc(a1-6)]GlcNAc
# Method in brief: as §1
# [27] = biological target: GlcNAc(b1-2)[GlcNAc(b1-6)]Man(a1-6)[GlcNAc(b1-2)Man(a1-3)]Man(b1-4)GlcNAc(b1-4)GlcNAc
# Method in brief: as §1
# [28] = biological target: GlcNAc(b1-2)[GlcNAc(b1-6)]Man(a1-6)[GlcNAc(b1-2)Man(a1-3)]Man(b1-4)GlcNAc(b1-4)[Fuc(a1-6)]GlcNAc
# Method in brief: as §1
# [29] = biological target: GlcNAc(b1-2)[GlcNAc(b1-6)]Man(a1-6)[GlcNAc(b1-4)][GlcNAc(b1-2)Man(a1-3)]Man(b1-4)GlcNAc(b1-4)GlcNAc
# Method in brief: as §1
# GlcNAc(b1-3)Fuc = biological target: GlcNAc(b1-3)Fuc
# Method in brief: as §1
# GlcNAc(b1-3)Gal = biological target: GlcNAc(b1-3)Gal
# Method in brief: as §1
# [30] = biological target: GlcNAc(b1-3)Gal(b1-3)GalNAc
# Method in brief: as §1
binder,measurement,setting,value
B1,glycan array binding signal (z-score),[1],0.18
same,glycan array binding signal (z-score),[2],-0.04
same,glycan array binding signal (z-score),[3],1.16
same,glycan array binding signal (z-score),GalNAc(b1-4)GlcNAc6S,-0.975
same,glycan array binding signal (z-score),GalNAc(b1-6)GalNAc,0.3
same,glycan array binding signal (z-score),GalNAc3S(b1-4)GlcNAc,0.402
same,glycan array binding signal (z-score),GalNAc3S(b1-4)GlcNAc3S,-0.847
same,glycan array binding signal (z-score),[4],-0.592
same,glycan array binding signal (z-score),GalNAc4S6S(b1-4)GlcNAc,1.16
same,glycan array binding signal (z-score),GalNAc6S(b1-4)GlcNAc,-0.369
same,glycan array binding signal (z-score),Glc(a1-4)Glc,-0.364
same,glycan array binding signal (z-score),[5],0.312
same,glycan array binding signal (z-score),Glc(a1-6)Glc(a1-6)Glc,-0.74
same,glycan array binding signal (z-score),[6],-0.961
same,glycan array binding signal (z-score),Glc(b1-4)Glc,-0.427
same,glycan array binding signal (z-score),Glc(b1-6)Glc,1.14
same,glycan array binding signal (z-score),GlcA(b1-3)Gal,0.55
same,glycan array binding signal (z-score),GlcA(b1-3)GlcNAc,0.105
same,glycan array binding signal (z-score),GlcA(b1-6)Gal,2.27
same,glycan array binding signal (z-score),[7],-1.09
same,glycan array binding signal (z-score),[8],-1.73
same,glycan array binding signal (z-score),[9],-0.472
same,glycan array binding signal (z-score),[10],-0.343
same,glycan array binding signal (z-score),[11],-0.568
same,glycan array binding signal (z-score),[12],0.909
same,glycan array binding signal (z-score),[13],-1.5
same,glycan array binding signal (z-score),[14],1.1
same,glycan array binding signal (z-score),[15],0.637
same,glycan array binding signal (z-score),[16],1.5
same,glycan array binding signal (z-score),[17],0.156
same,glycan array binding signal (z-score),[18],-0.798
same,glycan array binding signal (z-score),[19],-0.099
same,glycan array binding signal (z-score),[20],-1.18
same,glycan array binding signal (z-score),[21],-0.122
same,glycan array binding signal (z-score),[22],1.22
same,glycan array binding signal (z-score),[23],-0.436
same,glycan array binding signal (z-score),[24],-0.66
same,glycan array binding signal (z-score),[25],-0.546
same,glycan array binding signal (z-score),[26],-0.095
same,glycan array binding signal (z-score),[27],0.893
same,glycan array binding signal (z-score),[28],-0.317
same,glycan array binding signal (z-score),[29],0.999
same,glycan array binding signal (z-score),GlcNAc(b1-3)Fuc,1.24
same,glycan array binding signal (z-score),GlcNAc(b1-3)Gal,-1.01
same,glycan array binding signal (z-score),[30],1.43

# Looked up one by one from the list above (four):
binder,measurement,setting,value
B1,glycan array binding signal (z-score),[16],1.5
same,glycan array binding signal (z-score),[13],-1.5
same,glycan array binding signal (z-score),[27],0.893
same,glycan array binding signal (z-score),[22],1.22
